The filed quantity is “Percent Effect” (%).
The controls that fix the scale are not given in the record; negative values are as filed.
Compounds were drawn at random from those tested, without regard to their results.
Two or more numbers in one place are separate tests of the same structure; such repeats can differ widely.

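Viability assay of Plasmodium falciparum sporozoites; the read-out is not stated. The concentration is filed as 10 mM, unlikely as a test dose, so the dose is not known. Direction is inferred from retests: higher values go with lower viability. Strong results were mostly tested again. About 34,000 compounds were tested under these conditions; 0.84% (about 280) showed 50% or more at least once.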

| # | compound | Percent Effect |
|---|---|---|
| 1 | `O=C(Nc1cccc2c1CCCC2)C1CCCN1c1nccs1` (centres unmarked) | 26.25 |
| 2 | `Cc1nn(C)c(C)c1C1CCCN1Cc1nc(-c2ccco2)oc1C` (centres unmarked) | 6.6 |
| 3 | `O=C(O)C(F)(F)F.O=C(O)C(F)(F)F.[H][C@]12CC(=O)N(Cc3cccc(C)n3)[C@@]1([H])CCN2Cc1ccc(F)cc1` | 3.43 |
| 4 | `Cc1nc(-c2ccc(C(=O)O)cc2)cc(C2CCN(C(C)C)C2)n1` (centres unmarked) | -8.009 |
| 5 | `O=C(O)C(F)(F)F.O=C(O)C(F)(F)F.[H][C@@]12CN(Cc3ccoc3)C[C@]1([H])OCCN2c1ccc(C)nn1` | 10.34 |
| 6 | `Cc1ccc(S(=O)(=O)NC(=O)c2cccc3c2OCCO3)c(C)c1` | -6.966 |
| 7 | `CN(C)c1nccnc1C1CCN(C2CCCCC2O)CC1` (centres unmarked) | -5.36 |
| 8 | `CC(C)NC(=O)N1CCN(S(=O)(=O)C2CC2)CC2(CNC(=O)C2)C1` (centres unmarked) | 2.57 |
| 9 | `CC(C)c1cc(C(=O)N2CCCC(n3cncn3)C2)n[nH]1` (centres unmarked) | -0.2026 |
| 10 | `[H][C@@]12CNC[C@@]1([H])N(CC1CC1)C(=O)CO2` | -9.114 |
| 11 | `O=C(O)C(F)(F)F.O=C(O)C(F)(F)F.[H][C@]12CCN(c3cnn(C)c3)C(=O)[C@]1([H])CN(Cc1ccncc1)C2` | -257.7 |
| 12 | `CC(c1cc(O)nc(NC2CCCC2)n1)n1ncc2ccccc2c1=O` (centres unmarked) | -1.554 |
| 13 | `Cn1cnnc1C1CCCN(C(=O)NCCc2ccccn2)C1` (centres unmarked) | -2.662 |
| 14 | `CC(C)NC(=O)Nc1ccc(CS(=O)(=O)C(C)(C)C)cc1` | -11.61 |
| 15 | `O=C1CN(C(=O)C2CCCCC2)CC(O)CN1Cc1ccc(Cl)cc1` (centres unmarked) | -29.43 |
| 16 | `CCN(Cc1ccc2c(c1)OCCO2)C(=O)NC(C)Cn1ccnc1` (centres unmarked) | -1.635 |
| 17 | `O=C(c1ccc(-n2cccn2)nc1)N1CCC(Nc2cccnn2)CC1` | -8.092 |
| 18 | `c1cn(Cc2nnc(C3CCN(c4nccs4)CC3)n2C2CC2)cn1` | -6.867 |
| 19 | `CNc1cc2c(nn1)CCN(C(=O)c1cc(C)n(C3CC3)c1C)C2` | 2.624 |
| 20 | `Cc1sc(C(=O)O)cc1S(=O)(=O)Nc1c(F)cccc1-n1cccn1` | -22.3 |
| 21 | `CN(C)CCn1c(=O)oc2ccc(NC(=O)N3CCCCCC3)cc21` | -12.99 |
| 22 | `Cc1cnc(N2Cc3nccn3CC(Cn3ncccc3=O)C2)nc1.O=C(O)C(F)(F)F` (centres unmarked) | 2.361 |
| 23 | `COc1ccccc1C1(CNc2snc(Cl)c2C#N)CCCC1` | 0 |
| 24 | `COc1c(CNC(c2ccccc2)c2ccc(F)cc2)c(C)nn1C` (centres unmarked) | 5.329 |
| 25 | `COC(=O)c1cccc(S(=O)(=O)NC(=O)COC2CCCCC2)c1` | 2.602 |
| 26 | `CN(Cc1ccc(F)cc1)CC1(O)CCCN(CC(C)(C)C)C1=O` (centres unmarked) | -9.63 |
| 27 | `O=C(CCc1c[nH]cn1)N1CC[C@@H](c2ccc3ccccc3c2)[C@H](O)C1` | -1.073 |
| 28 | `O=C(NCCOCC(F)(F)F)c1ccc(-c2ccccc2)[nH]c1=O` | 6.439 |
| 29 | `Cc1noc(COCC(=O)Nc2cc(C)c(Br)cn2)n1` | -15.31 |
| 30 | `CCOc1ccc2[nH]c(=O)c(CN3CCC(O)CC3)cc2c1` | 12.79 |
| 31 | `[H][C@]12CC[C@]([H])(CN(C(=O)N(C)C)C1)N(Cc1ccc3nsnc3c1)C2` | -8.735 |
| 32 | `CN1CCC2(CCN(C(=O)c3cccnc3)C2)C1` (centres unmarked) | 16.94 |
| 33 | `[H][C@@]12CS(=O)(=O)C[C@]1([H])N(C(=O)c1cc[nH]n1)CCN2CCC` | 1.433 |
| 34 | `CC(C)(C)n1cc(C(=O)N2CCN(Cc3cccnc3)CC2)cn1` | -2.35 |
| 35 | `Cc1ccsc1C(=O)N1CCC2(CC(N(C)c3ccncn3)C2)C1` (centres unmarked) | -5.69 |
| 36 | `[H][C@@]12CCN(c3ccc(C)nn3)C[C@]1(C(=O)N1CCCO1)CCO2` | 0.4476 |
| 37 | `Cc1nnc2n1CCN(CCOc1ccccc1C#N)C2` | -0.8075 and -15.94 and -27.96 |
| 38 | `Cc1cc(C(F)(F)F)cc(N2CCN(Cc3ccccc3)CC(O)C2)n1` (centres unmarked) | 1.654 |
| 39 | `Cc1cc(-c2nn(C)c(Cl)c2CN2CC[C@@](O)(C3CCC3)[C@H](C)C2)no1` | 3.418 |
| 40 | `CCc1nc(CN2CCCN(CC(O)c3ccccc3)CC2)no1` (centres unmarked) | -24.63 and 50.54 and -23.78 |
| 41 | `CS(=O)(=O)NCC1CCCN(C(=O)c2cccc(F)c2)C1` (centres unmarked) | 4.314 and -15.13 and -3.499 |
| 42 | `Cl.Cl.c1cnc(NCc2cncc3c2CCN(Cc2ccoc2)C3)nc1` | 11.78 |
| 43 | `C[C@@H]1CN(C(=O)c2cnc(C3CC3)nc2)CC[C@@]1(O)C1CCOCC1` | 6.706 |
| 44 | `CNC(=O)C1CCN(C(=O)c2cccn2Cc2cccs2)CC1` | -6.541 |
| 45 | `C1CCCN(CC2CCCN(Cc3noc(C4CC4)n3)C2)CC1` (centres unmarked) | 3.026 |
| 46 | `CCc1cnc(CN(C)C2CCN(CC(=O)Nc3cc(C)on3)C2)o1` (centres unmarked) | 11.99 |
| 47 | `O=C(NCCOc1ccc(Cl)cn1)Nc1nccs1` | 14.74 |
| 48 | `COCCN1CC2(CCC1=O)CCN(Cc1nnc(C)o1)CC2` | -18.25 and -25.33 |
| 49 | `[H][C@]12CN(CCOC)C(=O)[C@@]1([H])CN(S(=O)(=O)c1cccs1)C2` | 9.239 |
| 50 | `CCc1ccc(C(=O)NCc2cccc(S(=O)(=O)NC)c2)o1` | 5.942 |
| 51 | `CCCC(=O)n1ccn(S(=O)(=O)c2ccc(C)cc2)c1=O` | 2.271 |
| 52 | `C(=C\c1ccc(CN2CCCC2)cn1)/c1ccccc1` | 78.68 and 64.66 |
| 53 | `O=C1CCC2(CCN(c3ncc(F)cn3)CC2)N1CCN1CCCC1` | -3.687 |
| 54 | `O=C(c1cc[nH]n1)N1CCCC(c2cccc(-n3ccnc3)n2)C1` (centres unmarked) | -10.13 |
| 55 | `COCCn1ccc2c(C(=O)Nc3nc4c(s3)CCC4)cccc21` | 69.11 and 95.7 and 86.17 |
| 56 | `CCOc1cncc(N2CCN(c3ccccc3O)CC2)n1` | -16.04 |
| 57 | `CN(CCn1nc2ccccn2c1=O)CC(=O)N1CCCC1` | 5.524 |
| 58 | `Cc1cccc(C(=O)N2CC(=O)N(c3ccccc3Cl)CC2C)n1` (centres unmarked) | -4.585 |
| 59 | `O=C(O)C(F)(F)F.O=C(O)C(F)(F)F.[H][C@@]12OCCN(C(=O)c3cncc(C)c3)[C@@]1([H])CC[C@H]2OCCN(C)C` | 5.526 |
| 60 | `N#Cc1ccc(N2CCCN(CC(N)=O)CC2)cc1` | 8.565 |
| 61 | `Cc1nc(CN2CCCC(N(C)Cc3cnc(C)s3)C2)no1` (centres unmarked) | 1.115 |
| 62 | `CCN1CCC2(COCc3cnc(-c4cccnc4)nc32)C1` (centres unmarked) | -11.43 |
| 63 | `O=C(c1ccccc1C(F)(F)F)N1C[C@@H](CN2CCOCC2)[C@@H](CO)C1` | -6.579 |
| 64 | `CS(=O)(=O)c1cncnc1C1CCCN(C(=O)Nc2ccc(F)cc2)C1` (centres unmarked) | -18.62 |
| 65 | `Nc1cccc(C2CN(C(=O)CN3CCOCC3)CCO2)n1` (centres unmarked) | 3.517 |
| 66 | `CCC(CC)C(=O)NCc1cn2cc(Br)ccc2n1` | -18.38 |
| 67 | `Cc1nc(C)n(C2CCCN(C(=O)c3cccc4[nH]ncc34)C2)n1` (centres unmarked) | -0.6689 |
| 68 | `CCC(=O)N1CCC2(CC1)C(=O)N(C)CCN2Cc1csc(C)n1.O=C(O)C(F)(F)F` | 12.24 |
| 69 | `Cc1nn(C)c(C)c1-c1ccc(=O)n(C(C)C(=O)NC2CCCC2)n1` (centres unmarked) | 10.2 |
| 70 | `[H][C@@]12C[C@@H](OCc3cccnc3)CN1CCN(C(=O)c1ccsc1)C2` | -7.728 |
| 71 | `CN1CCCC(c2cccc(CCC(=O)NCc3ccccn3)n2)C1` (centres unmarked) | 11.06 |
| 72 | `COc1ccc(-c2cnc(N(C)C)nc2C2CNCCO2)cc1.Cl` (centres unmarked) | 3.932 |
| 73 | `COCCCN(Cc1ccccc1Cl)C1CCS(=O)(=O)C1` (centres unmarked) | 2.271 |
| 74 | `Cc1ccc(S(=O)(=O)N2CCC3(CC(C(=O)NCC4CC4)=NO3)C2)cc1` (centres unmarked) | -12.19 |
| 75 | `Cc1nc(C)n(CCC(=O)N2CCc3ncc(Cl)cc3C2)n1` | 9.707 |
| 76 | `CN(C)CC1CN(c2ncnc3[nH]ccc23)CCO1` (centres unmarked) | -13.84 |
| 77 | `Cc1nc(N(CCC(N)=O)Cc2ccccc2)c2nc(C)oc2n1` | 2.982 |
| 78 | `CCSc1ccc(NC(=O)N2CCCC2c2ccncc2)cn1` (centres unmarked) | -3.344 |
| 79 | `CC(C)c1cc(NCC(O)CO)n2nccc2n1` (centres unmarked) | -9.765 |
| 80 | `CCN(C(=O)c1ccc2nnc(C3CCN(C(C)=O)C3)n2c1)C(C)C` (centres unmarked) | 10.99 |
| 81 | `[H][C@@]12CN(Cc3ccccn3)C[C@]1([H])OCCN2CC1CCCO1` (some centres unmarked) | -6.112 and -1.371 and -16.63 |
| 82 | `Cc1nn(C)cc1CN1CCC(c2ncc(Cl)cc2S(C)(=O)=O)CC1` | 3.927 |
| 83 | `Cl.c1cc(CNCc2ccc(-n3cncn3)nc2)cc(OC2CCCC2)c1` | -8.045 |
| 84 | `CC1(C)Cc2nc(C(C)(C)C)ncc2C(NC(=O)Cc2nnn[nH]2)C1` (centres unmarked) | -3.581 |
| 85 | `CNS(=O)(=O)c1ccc(CNC(=O)C2CCCN(C)C2)cc1` (centres unmarked) | -23.86 |
| 86 | `O=C(O)C(F)(F)F.[H][C@@]12C[C@H](C(=O)NC3CCCC3)CN(Cc3ccoc3)[C@]1([H])CCO2` | 1.347 |
| 87 | `O=C(c1ccccc1OCC1CC1)N1CCCC1Cn1cccn1` (centres unmarked) | -7.804 |
| 88 | `[H][C@@]12OCCN(C(=O)c3ccc(C)o3)[C@@]1([H])CC[C@H]2OCC1CCOCC1` | -10.77 |
| 89 | `Cc1cn(Cc2ccc(F)cc2)nc1N` | -4.498 |
| 90 | `Cc1ccc(-c2nnc(CN3CCOC(Cn4cccn4)C3)o2)cc1` (centres unmarked) | -11.1 |
| 91 | `CC(C)N(Cc1cccnc1)C(=O)CCSc1ccc(C#N)cc1` | -7.88 |
| 92 | `CCCN(C)S(=O)(=O)N1CCCC1c1ccco1` (centres unmarked) | -2.592 |
| 93 | `CN(C)C(=O)c1ccc2c(c1)N(C)C(CC(=O)NCc1ccno1)CO2` (centres unmarked) | -8.063 |
| 94 | `O=C(O)C(F)(F)F.[H][C@@]12C[C@@H](c3nc(C)no3)O[C@]1([H])CN(Cc1cc(C)on1)C2` | 0.3352 |
| 95 | `Cc1cc(C)n(C2CN(CC(=O)N(C)Cc3ccc(C)o3)C2)n1` | -8.906 |

For reference, 12 entries once more:

Cc1noc(COCC(=O)Nc2cc(C)c(Br)cn2)n1 read -15.31%.
Cc1cnc(N2Cc3nccn3CC(Cn3ncccc3=O)C2)nc1.O=C(O)C(F)(F)F (centres unmarked) read 2.361%.
CN(Cc1ccc(F)cc1)CC1(O)CCCN(CC(C)(C)C)C1=O (centres unmarked) read -9.63%.
CCN(C(=O)c1ccc2nnc(C3CCN(C(C)=O)C3)n2c1)C(C)C (centres unmarked) read 10.99%.
O=C(c1ccc(-n2cccn2)nc1)N1CCC(Nc2cccnn2)CC1 read -8.092%.
Cc1nc(-c2ccc(C(=O)O)cc2)cc(C2CCN(C(C)C)C2)n1 (centres unmarked) read -8.009%.
COCCn1ccc2c(C(=O)Nc3nc4c(s3)CCC4)cccc21 read 69.11% and 95.7% and 86.17%.
CN(C)CC1CN(c2ncnc3[nH]ccc23)CCO1 (centres unmarked) read -13.84%.
Cc1ccsc1C(=O)N1CCC2(CC(N(C)c3ccncn3)C2)C1 (centres unmarked) read -5.69%.
O=C(CCc1c[nH]cn1)N1CC[C@@H](c2ccc3ccccc3c2)[C@H](O)C1 read -1.073%.
[H][C@@]12CS(=O)(=O)C[C@]1([H])N(C(=O)c1cc[nH]n1)CCN2CCC read 1.433%.
Cc1ccc(-c2nnc(CN3CCOC(Cn4cccn4)C3)o2)cc1 (centres unmarked) read -11.1%.

Measurements from “University of Dundee, Small-Polar-MMV Screening Library” (2021), ChEMBL document CHEMBL3988442.